# Screening data

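A panel of P. falciparum strains inside erythrocytes is exposed to compounds for three days, then a DNA-binding dye reports the amount of parasite DNA.
Each compound was titrated across a series from about 0.000037 to 29 µM.
The number is the fitted AC50, the concentration giving a half-maximal change in signal; a lower value means higher potency, whether the curve shows a decrease or an increase.
Calls follow the curve class and fit quality: every row here is inconclusive, covering signal-raising curves and weak, poorly fitted, partial or highest-dose-only inhibition curves.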

Values are in µM.
Every entry below has the call inconclusive.
These entries are mostly ones the record files as inconclusive; other results of the assay are not listed here.
A potency from a partial, single-point or poor curve is only a rough figure.
Some entries filed as inconclusive have a full curve.
The first word of each remark tells which way the curve ran; it can be opposite to the aim of the assay.

compound | tested on / at | Potency (µM) | curve as filed
O=C(O)c1ccc(NC(=O)[C@H](Cc2ccc(O)cc2)NC(=O)c2ccccc2)cc1 | W2 | 1.51 | inhibitor, single point
Nc1ccc(O)c(C(=O)O)c1 | P93_24 | 3.981 | inhibitor, single point
Nc1ccc(O)c(C(=O)O)c1 | CP266 | 1.901 | inhibitor, single point
CC(=O)[C@H]1CC[C@H]2[C@@H]3CC[C@H]4C[C@](C)(O)CC[C@]4(C)[C@H]3CC[C@]12C | CP260 | 10 | inhibitor, single point
CN(C)CC/C=C1\c2ccccc2COc2ccc(CC(=O)O)cc21 | PC26 | 19.01 | inhibitor, single point
CN(C)CC/C=C1\c2ccccc2COc2ccc(CC(=O)O)cc21 | CP335 | 4.256 | inhibitor, single point
CN(C)CC/C=C1\c2ccccc2COc2ccc(CC(=O)O)cc21 | W2 | 1.694 | inhibitor, single point
C#CCN(C)CCCOc1ccc(Cl)cc1Cl | 7G8 | 7.943 | inhibitor, partial curve
C#CCN(C)CCCOc1ccc(Cl)cc1Cl | DIV17 | 21.33 | inhibitor, partial curve, poor fit
C#CCN(C)CCCOc1ccc(Cl)cc1Cl | CP250 | 2.239 | inhibitor, single point
CC/C=C\C/C=C\C/C=C\C/C=C\C/C=C\CCCC(=O)O | CP247 | 10 | inhibitor, single point
FC(F)(F)COCC(F)(F)F | CP266 | 0.0005 | inhibitor
N#CC(c1ccc(Cl)cc1)c1c(Cl)cc(-n2ncc(=O)[nH]c2=O)cc1Cl (centres undefined) | DIV14 | 15.1 | inhibitor, single point
N#CC(c1ccc(Cl)cc1)c1c(Cl)cc(-n2ncc(=O)[nH]c2=O)cc1Cl (centres undefined) | DIV17 | 16.94 | inhibitor, single point
CN1CCN(CCCN2c3ccccc3Sc3ccc(C(F)(F)F)cc32)CC1 | CP217 | 14.13 | inhibitor, partial curve, poor fit
CN1CCN(CCCN2c3ccccc3Sc3ccc(C(F)(F)F)cc32)CC1 | CP297 | 19.01 | inhibitor, single point
CN1CCN(CCCN2c3ccccc3Sc3ccc(C(F)(F)F)cc32)CC1 | CP247 | 10 | inhibitor, single point
CN1CCN(CCCN2c3ccccc3Sc3ccc(C(F)(F)F)cc32)CC1 | PC49 | 12.59 | inhibitor, single point
CN1CCN(CCCN2c3ccccc3Sc3ccc(C(F)(F)F)cc32)CC1 | CP215 | 15.1 | inhibitor, single point
CN1CCN(CCCN2c3ccccc3Sc3ccc(C(F)(F)F)cc32)CC1 | CP329 | 19.01 | inhibitor, single point
CN1CCN(CCCN2c3ccccc3Sc3ccc(C(F)(F)F)cc32)CC1 | CP262 | 15.1 | inhibitor, single point
CN1CCN(CCCN2c3ccccc3Sc3ccc(C(F)(F)F)cc32)CC1 | CP305 | 16.94 | inhibitor, single point
CN1CCN(CCCN2c3ccccc3Sc3ccc(C(F)(F)F)cc32)CC1 | ECU | 15.85 | inhibitor, single point
CN1CCN(CCCN2c3ccccc3Sc3ccc(C(F)(F)F)cc32)CC1 | CP185 | 10 | inhibitor, partial curve
CN(C)CCOC(=O)COc1ccc(Cl)cc1 | PC15 | 1.122 | activator, full curve
CN(C)CCOC(=O)COc1ccc(Cl)cc1 | CP237 | 0.631 | activator, full curve
CC1=C(/C=C/C(C)=C/C=C/C(C)=C/C=C/C=C(C)/C=C/C=C(C)/C=C/C2=C(C)C(=O)CCC2(C)C)C(C)(C)CCC1=O | DIV14 | 19.01 | inhibitor, single point
CC1=C(/C=C/C(C)=C/C=C/C(C)=C/C=C/C=C(C)/C=C/C=C(C)/C=C/C2=C(C)C(=O)CCC2(C)C)C(C)(C)CCC1=O | CP256 | 19.95 | inhibitor, single point
O=c1[nH]c(=O)c2ccccc2o1 | CP247 | 3.981 | inhibitor, single point
CCCCCCCCCCCCCCCC(=O)OC[C@H](O)[C@H]1OC[C@@H](O)[C@@H]1O | DIV14 | 9.528 | inhibitor, single point
CCCCCCCCCCCCCCCC(=O)OC[C@H](O)[C@H]1OC[C@@H](O)[C@@H]1O | TAB109 | 3.981 | inhibitor, single point
COc1ccc(CN(CCN(C)C)c2ncccn2)cc1 | CP266 | 16.94 | activator, single point
COc1ccc(CN(CCN(C)C)c2ncccn2)cc1 | 7G8 | 11.22 | inhibitor, single point
COc1ccc(CN(CCN(C)C)c2ncccn2)cc1 | CP203 | 0.0213 | activator, partial curve, poor fit
CCNC(=O)NCc1cccc(Cl)c1 | ICS | 12.59 | inhibitor, single point
CCCCCCCCCC(=O)O[C@H]1CC[C@H]2[C@@H]3CCC4=CC(=O)CC[C@@H]4[C@H]3CC[C@]12C | ICS | 17.78 | inhibitor, single point
CCCCCCCCCC(=O)O[C@H]1CC[C@H]2[C@@H]3CCC4=CC(=O)CC[C@@H]4[C@H]3CC[C@]12C | Dd2 | 17.78 | inhibitor, single point
CCCCCCCCCC(=O)O[C@H]1CC[C@H]2[C@@H]3CCC4=CC(=O)CC[C@@H]4[C@H]3CC[C@]12C | CP286 | 17.78 | inhibitor, single point
CCCCCCCCCC(=O)O[C@H]1CC[C@H]2[C@@H]3CCC4=CC(=O)CC[C@@H]4[C@H]3CC[C@]12C | CP260 | 17.78 | inhibitor, single point
O=C(O)COc1ccc(C(=O)c2cccs2)c(Cl)c1Cl | CP260 | 14.13 | inhibitor, single point
CCC(C(N)=O)N1CCCC1=O (centres undefined) | CP262 | 21.33 | activator, partial curve, poor fit
CCCCCCCCCCCCCCCCCC(=O)OCC(O)CO (centres undefined) | CP335 | 4.256 | inhibitor, single point
CCCCCCCCCCCCCCCCCC(=O)OCC(O)CO (centres undefined) | DIV30 | 0.0013 | inhibitor
CCCCCCCCCCCCCCCCCC(=O)OCC(O)CO (centres undefined) | JCK | 17.78 | inhibitor, single point
CCCCCCCCCCCCCCCCCC(=O)OCC(O)CO (centres undefined) | P93_24 | 17.78 | activator, single point
CCCCCCCCCCCCCCCCCC(=O)OCC(O)CO (centres undefined) | 3D7 | 3.981 | inhibitor, single point
O=C(O)CN(CCN(CC(=O)O)CC(=O)O)CC(=O)O | ICS | 17.78 | inhibitor, single point
O=C(O)CN(CCN(CC(=O)O)CC(=O)O)CC(=O)O | CP215 | 15.1 | inhibitor, single point
CC(C)(Oc1ccc(Cl)cc1)C(=O)O | ATS95 | 11.22 | inhibitor, single point
CC(C)(Oc1ccc(Cl)cc1)C(=O)O | CP305 | 15.1 | activator, partial curve, poor fit
O=C1c2ccccc2S(=O)(=O)N1CCCCN1CCN(c2ncccn2)CC1 | DIV17 | 7.569 | inhibitor, partial curve, poor fit
O=C1c2ccccc2S(=O)(=O)N1CCCCN1CCN(c2ncccn2)CC1 | 7G8 | 10 | inhibitor, partial curve

Repeated from the top, 4 entries:

- O=C(O)c1ccc(NC(=O)[C@H](Cc2ccc(O)cc2)NC(=O)c2ccccc2)cc1 [W2] | Potency 1.51 µM (inhibitor, single point)
- Nc1ccc(O)c(C(=O)O)c1 [P93_24] | Potency 3.981 µM (inhibitor, single point)
- Nc1ccc(O)c(C(=O)O)c1 [CP266] | Potency 1.901 µM (inhibitor, single point)
- CC(=O)[C@H]1CC[C@H]2[C@@H]3CC[C@H]4C[C@](C)(O)CC[C@]4(C)[C@H]3CC[C@]12C [CP260] | Potency 10 µM (inhibitor, single point)

Data taken from PubChem BioAssay AID504749, deposited by NCATS (2011).